# Results: patent US20090068679A1
# These are yes or no findings as the source states them, for the method shown. Some results given as binding are weak or reduced against the parent protein; the word gives no strength.
# Target: recombinant human VEGF R1 (Flt-1)/Fc chimera (R&D Systems, Catalog No. 321-FL/CF) (human) (UniProt P17948)
# Assay: ELISA: PlGF 1 ug/ml on plate-captured Flt-1/Fc; complex shown by the comparison antibodies
binder,measurement,value
"recombinant human PlGF (R&D Systems, Catalog No. 264-PG/CF) (ligand, UniProt P49763-2 21-149, looked up) AVPPQQWALSAGNGSSEVEVVPFQEVWGRSYCRALERLVDVVSEYPSEVEHMFSPSCVSLLRCTGCCGDENLHCVPVETANVTMQLLKIRSGDRPSYVELTFSQHVRCECRPLREKMKPERCGDAVPRR",binding,binds
